{"source": "patent US20090286785A1", "about": "“Pyrimidine Derivatives” (Bayer Pharmaceuticals Corporation, priority 2005, published 2009)", "system": "HCT116 cells", "test": "HCT116 cytotoxic activity assay (Alamar Blue, 72 h)", "conditions": "read-out: IC50 in the HCT116 cytotoxic activity assay, 72 h compound exposure, Alamar Blue readout", "note": "Some of these results come from one statement about several compounds together. At least one structure is not confirmed: it was looked up by name or label, or the drawing left a doubt.", "data": [{"smiles": "N#Cc1cc(Oc2ccc(Nc3cc(-c4cccc5ccccc45)nc(N)n3)cc2)ccn1", "note": "[Example 1]", "values": [{"measurement": "IC50", "result": "≤ 0.5", "unit": "µM"}]}]}
